# Reference: the supplement of paper PMC8256030
# “And” between values parts separate entries of the source, which are not always exact repeats. Equal entries are not always repeated. Structures can show the parent of a compound that is named as a salt. Some of the results follow. This data set is noisy: repeats of one test often differ as much as different tests do.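 HEK293T cells were given each compound shortly before transfection with a reporter in which red mCherry is followed by the SARS-CoV-2 frameshift element and then GFP in the −1 frame, so GFP appears only after frameshifting.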
# Legend:
# HEK293T = assay: percent viability (nuclei count) relative to control; higher = more viable cells; settings: 10 µM; 24 h
# [1] = system: SARS-CoV-2 -1 PRF reporter mCherry-FSE-GFP(-1); assay: mCherry (red) intensity as percent of control; higher = higher upstream reporter expression; settings: 10 µM; 24 h; HEK293T
# [2] = system: SARS-CoV-2 -1 PRF reporter mCherry-FSE-GFP(-1); assay: percent effect, decrease of GFP/mCherry ratio (-1 PRF reporter) relative to controls; higher = stronger frameshift inhibition; settings: 10 µM; 24 h; HEK293T
Compound,percent viability (HEK293T),mCherry [1],percent effect [2]
CC(=O)Nc1cc([As](=O)(O)O)ccc1O [acetarsol],279%,128%,-3.76%
CN1C(=O)CN=C(c2ccccc2F)c2cc([N+](=O)[O-])ccc21 [flunitrazepam],319%,102%,-4.15%
CN1[C@@H]2CC[C@H]1C[C@@H](OC(=O)[C@H](CO)c1ccccc1)C2,208%,106%,-9.9%
COc1ccc2c3c1O[C@H]1[C@@H](O)C=C[C@H]4[C@@H](C2)NCC[C@@]341,236%,105%,-0.643%
C[C@H](N)Cc1cccc(O)c1 [gepefrine],265%,96.5%,-6.01%
CC[C@@H](C)C(=O)O[C@H]1[C@H](O)[C@H]2[C@@H](CN3C[C@@H](C)CC[C@H]3[C@@]2(C)O)[C@@H]2C[C@]34O[C@]5(O)[C@@H](OC(=O)[C@@](C)(O)CC)CC[C@@]3(C)[C@@H]5[C@@H](OC(C)=O)[C@@H](OC(C)=O)[C@H]4[C@@]21O,419%,109%,-3.51%
C=CCC1(C(C)C)C(=O)NC(=O)NC1=O [aprobarbital],343%,94.7%,-3.63%
CC(Cc1ccc(O)cc1)NCC(O)c1cc(O)cc(O)c1 (stereo unspecified) [fenoterol],125%,108%,-9.17%
CN(C)[C@@H]1C(=O)C(C(N)=O)=C(O)[C@@]2(O)C(=O)C3=C(O)c4c(O)ccc(Cl)c4[C@@](C)(O)[C@H]3C[C@@H]12,117%,117%,-0.724%
C=CC[C@]1(O)CC[C@H]2[C@@H]3CCC4=CCCC[C@@H]4[C@H]3CC[C@@]21C [Gestanin],207%,105%,-0.782%
CNCC(=O)c1ccc(O)c(O)c1,317%,84.5%,-3.36%
CC1(C)C(C=C(Cl)Cl)C1C(=O)OCc1cccc(Oc2ccccc2)c1 (stereo unspecified),196%,125%,-2.18%
CO[C@@]12CC[C@@]3(C[C@@H]1[C@](C)(O)C(C)(C)C)[C@H]1Cc4ccc(O)c5c4[C@@]3(CCN1CC1CC1)[C@H]2O5 [Buprenorphine],41.6%,86.8%,-0.941%
CC(C)C[C@H]1C(=O)N2CCC[C@H]2[C@]2(O)O[C@](NC(=O)[C@@H]3C=C4c5cccc6[nH]c(Br)c(c56)C[C@H]4N(C)C3)(C(C)C)C(=O)N12 [bromocriptine],85.8%,93.3%,-5.82%
CC1NCCOC1c1ccccc1 (stereo unspecified) [phenmetrazine],191%,87.4%,-2.3%
CN(C)C(=O)Oc1cc(OC(=O)N(C)C)cc(C(O)CNC(C)(C)C)c1 (stereo unspecified) [bambuterol],364% and 213%,108% and 98.1%,-0.83% and -1.2%
O=C1CC[C@@]2(O)[C@H]3Cc4ccc(O)c5c4[C@@]2(CCN3CC2CC2)[C@H]1O5 [naltrexone],79.3%,79.9%,-0.882%
CN[C@@H](C)Cc1ccccc1 [metamfetamine],37.4%,97.8%,-0.746%
CN(C)C(=O)OC1N=C(c2ccccc2)c2cc(Cl)ccc2N(C)C1=O (stereo unspecified) [camazepam],170%,115%,4.19%
CCC1(C2=NCCN2)Cc2ccccc2O1 (stereo unspecified),324%,92.3%,0.0366%
Cc1cccc([C@H](C)c2c[nH]cn2)c1C [Precedex],141%,83.9%,-6.89%
CN(c1nc2ccccc2s1)C1CCN(C[C@H](O)COc2ccc(F)c(F)c2)CC1 [lubeluzole],126%,57.6%,-14.3%
COc1cc2c(cc1OC)[C@@]13CCN4CC5=CCO[C@H]6CC(=O)N2[C@H]1[C@H]6[C@H]5C[C@H]43,216%,100%,-7.32%
O=C1C[C@@H]2OCC=C3CN4CC[C@]56c7ccccc7N1[C@H]5[C@H]2[C@H]3C[C@H]46 [Strychnine·HCl],274%,94.9%,2.93%

Compound,percent viability (HEK293T),mCherry [1],percent effect [2]
CCc1cc2c(s1)-n1c(C)nnc1CN=C2c1ccccc1Cl [etizolam],241%,101%,-0.677%
CN(C)CCc1c[nH]c2cccc(OP(=O)(O)O)c12 [psilocybine],21.7%,91.4%,0.231%
CNc1ccc(C(=O)CC(O)CCC(C)C2OC(=O)CC(O)CC(=O)CC(O)CC(O)CC(O)CC(O)CC3(O)CC(O)C(C(=O)OC)C(CC(O[C@@H]4O[C@H](C)[C@@H](O)[C@H](N)[C@@H]4O)/C=C/C=C/C=C/C=C/C=C/C=C/C=C/C2C)O3)cc1.COC(=O)C1C(O)CC2(O)CC(O)CC(O)CC(O)CC(O)CC(=O)CC(O)CC(=O)OC(C(C)CCC(O)CC(=O)c3ccc(N)cc3)C(C)/C=C/C=C/C=C/C=C/C=C/C=C/C=C/C(O[C@@H]3O[C@H](C)[C@@H](O)[C@H](N)[C@@H]3O)CC1O2 (stereo partly specified),237%,78.3%,-1.83%
COc1ccc2c(c1OC)C(=O)O[C@@H]2[C@H]1c2cc3c(cc2CCN1C)OCO3,174%,105%,-10.4%
CCOC(=O)c1cncn1C(C)c1ccccc1 (stereo unspecified),360%,118%,0.962%
CCC1(c2ccccc2)C(=O)NC(=O)NC1=O [phenobarbital],274% and 142%,90.5% and 88.4%,-6.33% and -2.28%
CCN(CC)C(=O)N[C@H]1C[C@@H]2c3cccc4[nH]cc(c34)C[C@H]2N(C)C1 [terguride],65.6%,83.2%,-4.42%
O=C1CN=C(c2ccccc2Cl)c2cc(Cl)ccc2N1 [delorazepam],81.5%,119%,-0.563%
C=C[C@H]1CN2CC[C@H]1C[C@H]2[C@H](O)c1ccnc2ccccc12,156%,127%,1.78%
NCc1cccnc1 [picolamine],153%,90.4%,2.17%
O=c1cccc2n1C[C@@H]1CNC[C@H]2C1,270%,96%,0.702%
CCCC(C)C1(CC)C(=O)NC(=S)NC1=O (stereo unspecified) [thiopental sodium],107%,100%,-4.86%
c1ccc2c(c1)Nc1ccccc1S2 [phenothiazine],85.6%,88.1%,-10.2%
CCC1(CC)C(=O)NC(=O)N(C)C1=O [metharbital],351%,98.6%,-5.84%
O=C(O[C@H]1C[C@H]2CC[C@@H](C1)[N+]21CCCC1)C(O)(c1ccccc1)c1ccccc1 [trospium chloride],121%,125%,-0.915%
CC[C@H]1CCC[C@H](O[C@H]2CC[C@H](N(C)C)[C@@H](C)O2)[C@@H](C)C(=O)C2=C[C@@H]3[C@@H](C=C(C)[C@@H]4C[C@@H](O[C@@H]5O[C@@H](C)[C@H](OC)[C@@H](OC)[C@H]5OC)C[C@@H]34)[C@@H]2CC(=O)O1.CC[C@H]1CCC[C@H](O[C@H]2CC[C@H](N(C)C)[C@@H](C)O2)[C@@H](C)C(=O)C2=C[C@H]3[C@@H]4C[C@H](O[C@@H]5O[C@@H](C)[C@H](OC)[C@@H](OC)[C@H]5OC)C[C@H]4C=C[C@H]3C2CC(=O)O1 [Spinosad],321%,88.8%,-5.28%
COc1ccc(C(=O)N2CCCC2=O)cc1 [aniracetam],256% and 309%,100% and 88.9%,1.43% and -7.39%
Cc1c(N)nc(C(CC(N)=O)NCC(N)C(N)=O)nc1C(=O)NC(C(=O)NC(C)C(O)C(C)C(=O)NC(C(=O)NCCc1nc(-c2nc(C(=O)NCCC[S+](C)C)cs2)cs1)C(C)O)C(O[C@@H]1O[C@@H](CO)[C@@H](O)[C@H](O)[C@@H]1O[C@H]1O[C@H](CO)[C@@H](O)[C@H](OC(N)=O)[C@@H]1O)c1cnc[nH]1 (stereo partly specified),153%,239%,6.77%
CC1=CC(=O)N2CC(=O)N(C)c3ccc(Cl)cc3C2(c2ccccc2)O1 (stereo unspecified) [ketazolam],76.6%,129%,2.55%
C[C@@H]1CN(C2CCC(C#N)(c3ccc(F)cc3)CC2)CC[C@]1(C(=O)O)c1ccccc1 (stereo partly specified) [Levocabastine·HCl],220%,86.4%,-2.82%
CC(C)=CCN1CC[C@@]2(C)c3cc(O)ccc3C[C@@H]1[C@@H]2C [Fortral],322%,99.1%,0.499%
CC[N+]1(C)CCCC(OC(=O)C(O)(c2ccccc2)c2ccccc2)C1 (stereo unspecified) [pipenzolate bromide],13.5%,33.3%,0.234%
CC(c1ccccc1)C(C)(C)N (stereo unspecified) [pentorex],201%,101%,-3.14%

# 3 structures out of the list, ordered by count of non-hydrogen atoms, falling:
Compound,percent viability (HEK293T),mCherry [1],percent effect [2]
CO[C@@]12CC[C@@]3(C[C@@H]1[C@](C)(O)C(C)(C)C)[C@H]1Cc4ccc(O)c5c4[C@@]3(CCN1CC1CC1)[C@H]2O5 [Buprenorphine],41.6%,86.8%,-0.941%
COc1ccc2c(c1OC)C(=O)O[C@@H]2[C@H]1c2cc3c(cc2CCN1C)OCO3,174%,105%,-10.4%
CN1C(=O)CN=C(c2ccccc2F)c2cc([N+](=O)[O-])ccc21 [flunitrazepam],319%,102%,-4.15%
